# Results: PubChem BioAssay AID2417 (National Center for Advancing Translational Sciences (NCATS), 2010)
# In all, about 140,000 compounds went through this assay and about 4,300 (3.1%) were called active. The inconclusive results got no clear call from the source; some entries with a clear call stand among them for comparison.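 How the source made its calls: active means readout at or below -70, meaning at least 70% loss of cells showing the perinucleolar compartment, a nuclear body marking cancer cells; inconclusive means readout between -30 and a set limit; inactive means the rest.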
# Assay: High Content Assay for Compounds that inhibit the Assembly of the Perinucleolar Compartment;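 further: plate controls were DMSO wells for no effect and camptothecin positive control wells for full effect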
# Settings: PC3M PTB-GFP, PNC prevalence imaging, 16 h; at 10 µM; stronger effect = lower value
# Procedure, shortened: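 PC3M cells stably expressing PTB-GFP, 750–1000 cells/well, treated 16 h at 37 °C with compound (23 nl of library stock), in duplicate. After paraformaldehyde fixation and Hoechst stain, imaged at 20x; PNC prevalence scored by image analysis.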
row,Compound,"activity change (PNC), negative = inhibition"
1,CN(C)NC(=S)Nc1ccc(Cl)cc1,inconclusive: -33.3%
2,COCCOC(=O)N/C=C\c1nc2ccccc2c(=O)[nH]1,inactive: -15%
3,N#Cc1c(-c2ccccc2)ccn(Cc2ccc(Cl)cc2)c1=O,inactive: -4.94%
4,Cc1ccc(C(=O)NCCSC(C)(C)C)cc1[N+](=O)[O-],inconclusive: -38.1%
5,Fc1ccc(C(c2nnnn2Cc2ccccc2)N2CCSCC2)cc1 (centres undefined),inconclusive: -33.5%
6,COC(=O)c1ccc(NC(=O)CCn2cccc2)cc1,inconclusive: -32.9%
7,O=C(Nn1c(=O)[nH]c2ccsc2c1=O)c1ccccc1,inconclusive: -53%
8,Cc1cc(Oc2ccc(C)c(Cl)c2)nc(SCC(=O)c2ccccc2)n1,inconclusive: -49.9%
9,CC(C)CNC(=O)CSc1nnc(-c2cccc(S(=O)(=O)N3CCCCC3)c2)o1,active: -128%
10,COc1ccc(S(=O)(=O)Nc2ccc3c(c2)OCO3)cc1OC,inconclusive: -53.3%
11,CC(C)(C)n1nnnc1C(c1cc2cc3c(cc2[nH]c1=O)OCCO3)N1CCSCC1 (centres undefined),inactive: 7.71%
12,COc1cc2ncnc(NCc3ccc(C)cc3)c2cc1OC,inconclusive: -79.3%
13,O=C(Cn1nnc2ccccc2c1=O)NC1CCCc2ccccc21 (centres undefined),inconclusive: -55.5%
14,Cc1cc(C)c2c(=O)[nH]c(SCC(=O)c3ccc(C(C)C)cc3)nc2n1,inconclusive: -52.6%
15,Cc1ccccc1N1C(=O)CN(Cc2sccc2C)C1=S,inactive: -25%
16,O=C(CSc1ccc2c(c1)OCCO2)NC(=O)Cc1ccccc1,inactive: 28.8%
17,COc1ccc(NC(=O)/C(C#N)=C\C=C\c2ccco2)cc1,inactive: 8.52%
18,CCCOc1ccc(-c2nnn(CC(=O)Nc3cccc(C(=O)OC)c3)n2)cc1,inconclusive: -62.9%
19,c1ccc(-c2nnc3n2CCCC3)cc1,inconclusive: -46.7%
20,Cc1ccc(/C=N/NC(=O)Cn2cnc3c2c(=O)n(C)c(=O)n3C)s1,inconclusive: -56.2%

# 2 entries picked at random from those above, as already listed:
row,Compound,"activity change (PNC), negative = inhibition"
15,Cc1ccccc1N1C(=O)CN(Cc2sccc2C)C1=S,inactive: -25%
16,O=C(CSc1ccc2c(c1)OCCO2)NC(=O)Cc1ccccc1,inactive: 28.8%

# (further entries)

row,Compound,"activity change (PNC), negative = inhibition"
1,CC(=O)C1=C(O)C(=O)N(c2cccc(C(=O)O)c2)C1c1ccccc1F (centres undefined),inconclusive: -34.9%
2,O=C(CCN1C(=O)/C(=C/c2cccc(Br)c2)SC1=S)NNC(=O)c1cccnc1,inactive: -1.66%
3,CCOC(=O)NC(c1ccccc1)C1CCCCC1=O (centres undefined),inconclusive: -32.5%
4,CCOc1cc(N2CCOCC2)c(OCC)cc1NC(=O)CCC1CCCC1,inconclusive: -35.2%
5,CCC1=Nc2cc(C(=O)NCc3ccco3)ccc2Sc2ccccc21,inactive: -7.36%
6,O=C1c2ccccc2S(=O)(=O)N1Cc1nnc(-c2ccccc2Br)o1,inactive: -28.3%
7,CC(=O)NC12CC3CC(C1)CC(C(=O)OCC(=O)Nc1ncc(Cl)cc1Cl)(C3)C2,inconclusive: -46.7%
8,Cc1cc(NC(=O)c2c(F)cccc2Cl)n(-c2nc3ccccc3[nH]2)n1,inconclusive: -51.2%
9,Cc1ccc(S(=O)(=O)N2CCN(C(=O)c3ccccc3)C2C(C)C)cc1 (centres undefined),inconclusive: -40.6%
10,O=C(CSc1ncnc2sc3c(c12)CCCCC3)NCc1ccco1,inconclusive: -71.8%
11,O=C(Cc1ccccc1)n1nc(-c2ccccc2)nc1NCc1ccco1,inconclusive: -78.6%
12,Cc1ccc(C(=O)NNC(=S)NC(=O)COc2ccccc2)cc1,inconclusive: -63%
13,O=C(Nc1ccc(N2CCN(C(=O)c3ccco3)CC2)cc1)c1ccc(F)cc1,inconclusive: -31.9%
14,O=C(OCCCN1CCCC1)C1(c2ccccc2)CCCC1,inconclusive: -34.7%
15,Cc1[nH]c2ccccc2c1/C=N\NC(=O)CNc1ccc2c(c1)OCO2,inconclusive: -39.2%
16,CC(C)(C)c1ccc(/C=N/NC(=S)NCc2ccccc2)cc1,inconclusive: -46.3%
17,CC(CN1CCOCC1)OC(=O)C(C)(c1ccccc1)c1ccccc1 (centres undefined),inconclusive: -46.4%
18,Cn1ccnc1SCC(=O)Nc1sccc1C#N,inactive: 63.7%
19,NC1=NC(=O)/C(=C/c2cccs2)S1,inactive: -14.1%
20,COc1ccc(Cc2c[nH]c(=O)[nH]c2=O)cc1,inconclusive: -44.2%

# 2 successive records from above, quoted:
row,Compound,"activity change (PNC), negative = inhibition"
4,CCOc1cc(N2CCOCC2)c(OCC)cc1NC(=O)CCC1CCCC1,inconclusive: -35.2%
5,CCC1=Nc2cc(C(=O)NCc3ccco3)ccc2Sc2ccccc21,inactive: -7.36%

# The listing continues:

row,Compound,"activity change (PNC), negative = inhibition"
1,Cc1ccccc1NC(=O)/C(=C/c1cccs1)NC(=O)c1ccco1,inconclusive: -34.7%
2,CN(C)S(=O)(=O)c1ccc(S(=O)(=O)Nc2ccc3c(c2)oc2ccccc23)cc1,inconclusive: -70%
3,O=C(Cn1ccc2ccccc2c1=O)Nc1ccc2c(c1)OCO2,inconclusive: -32.3%
4,CC(=O)C1=C(C)Nc2cc(C(F)(F)F)ccc2S1,inactive: 32.8%
5,C[C@H](NC(=O)NCCc1ccccc1)C(=O)O,inconclusive: -31.6%
6,CCC(C)/C(C)=N/NC(=O)c1ccc(CSc2nc3ccccc3s2)cc1 (centres undefined),inactive: 2.74%
7,CSc1ncc2c(n1)-c1cc(C)ccc1SC2,inconclusive: -44.4%
8,Cc1ccc(NC(=O)C2C3/C=C\CCCCC32)cc1C (centres undefined),inactive: 50.8%
9,C1=CCC(/C=N/n2cnnc2)CC1 (centres undefined),inconclusive: -30.1%
10,COc1ccc(N2CCN(CCCNC(=O)C3(S(=O)(=O)c4ccc(Cl)cc4)CC3)CC2)cc1,inconclusive: -78.4%
11,COc1ccccc1/C=C/C(=O)OCC(=O)Nc1cc(C(F)(F)F)ccc1N1CCOCC1,inconclusive: -36.1%
12,COc1ccc(C2=NOC(C(=O)NCc3ccccc3)C2)cc1 (centres undefined),inconclusive: -46.9%
13,CCN(C(=O)c1cnc2scc(C)n2c1=O)c1ccccc1C,inactive: 10.1%
14,O=C(c1ccco1)N1N=C(c2cccs2)CC1c1ccc(F)cc1 (centres undefined),inconclusive: -64.8%
15,Oc1ccc(C=Nc2ccccc2-c2nc3ccccc3[nH]2)cc1,inconclusive: -42.9%
16,OC(CNCCC1C=Nc2ccccc21)Cn1c2ccc(Cl)cc2c2cc(Cl)ccc21 (centres undefined),inconclusive: -38%
17,Cc1cccc(C)c1NC(=O)NN(C(=O)c1ccccc1)C(C)(C)C,inconclusive: -53.7%
18,O=C(/C=C/c1ccccc1Cl)c1ccccc(=O)c1O,inactive: 2.76%
19,CN(CC(CC(=O)O)c1ccccc1)S(=O)(=O)c1ccc(Br)cc1 (centres undefined),inconclusive: -54%
